Article PMC6402520
Results are given in words; binding and its absence hold for the method and conditions named. In cells and extracts the contact can be indirect. Some results given as binding are weak or reduced against the parent protein; the word gives no strength.

Protein sequences, listed by entry. Tags and fused reporters are not part of them.
UniProt Q9JLV5: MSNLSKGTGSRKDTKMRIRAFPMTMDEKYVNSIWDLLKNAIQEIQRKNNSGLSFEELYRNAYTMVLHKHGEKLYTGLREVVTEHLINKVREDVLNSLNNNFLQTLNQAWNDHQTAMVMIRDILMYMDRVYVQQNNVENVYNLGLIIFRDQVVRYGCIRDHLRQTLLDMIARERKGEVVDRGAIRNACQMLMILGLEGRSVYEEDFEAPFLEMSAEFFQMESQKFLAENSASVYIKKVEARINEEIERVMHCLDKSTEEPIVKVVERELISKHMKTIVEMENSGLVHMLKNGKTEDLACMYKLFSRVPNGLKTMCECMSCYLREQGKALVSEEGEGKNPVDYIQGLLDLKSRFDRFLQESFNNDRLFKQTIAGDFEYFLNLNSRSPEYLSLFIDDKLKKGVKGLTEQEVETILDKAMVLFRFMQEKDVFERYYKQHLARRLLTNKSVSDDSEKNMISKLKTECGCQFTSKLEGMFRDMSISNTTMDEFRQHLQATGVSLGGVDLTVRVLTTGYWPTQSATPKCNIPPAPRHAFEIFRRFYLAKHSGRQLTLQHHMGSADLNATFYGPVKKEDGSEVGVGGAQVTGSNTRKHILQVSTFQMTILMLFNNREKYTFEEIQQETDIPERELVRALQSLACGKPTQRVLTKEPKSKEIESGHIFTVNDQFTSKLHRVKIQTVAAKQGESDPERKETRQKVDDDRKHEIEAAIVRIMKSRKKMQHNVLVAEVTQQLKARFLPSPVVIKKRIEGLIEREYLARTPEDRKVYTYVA

Biological target: T1, KBTBD8 (mouse (endogenous in oocytes)) (UniProt Q3UQV5)
T1 sequence: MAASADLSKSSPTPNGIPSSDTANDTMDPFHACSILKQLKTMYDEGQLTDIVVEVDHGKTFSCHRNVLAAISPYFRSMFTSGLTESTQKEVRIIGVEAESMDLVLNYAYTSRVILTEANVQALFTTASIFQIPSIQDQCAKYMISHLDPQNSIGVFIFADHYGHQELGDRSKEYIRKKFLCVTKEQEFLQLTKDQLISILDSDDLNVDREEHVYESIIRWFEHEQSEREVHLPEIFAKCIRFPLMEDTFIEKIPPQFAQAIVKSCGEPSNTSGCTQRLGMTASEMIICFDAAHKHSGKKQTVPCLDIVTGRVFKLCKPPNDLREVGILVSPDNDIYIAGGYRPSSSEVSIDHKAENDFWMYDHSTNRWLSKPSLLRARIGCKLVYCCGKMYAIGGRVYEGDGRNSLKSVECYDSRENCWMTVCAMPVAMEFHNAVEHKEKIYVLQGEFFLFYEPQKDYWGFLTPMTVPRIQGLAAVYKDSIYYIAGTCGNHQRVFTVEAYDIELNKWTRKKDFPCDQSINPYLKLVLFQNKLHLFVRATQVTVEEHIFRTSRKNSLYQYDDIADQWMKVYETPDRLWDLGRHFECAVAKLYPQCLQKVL
Assay: co-IP; rabbit anti-KBTBD8 or rabbit anti-Cul3 antibody on protein-A/G beads, incubated overnight at 4 °C with pre-cleaned lysate of 600 mouse oocytes; IP buffer 20 mM Tris-HCl pH 8.0, 10 mM EDTA, 1 mM EGTA, 150 mM NaCl, 0.05% Triton X-100, 0.05% NP-40; western blotting with KBTBD8 or Cul3 antibody

For cul3 (from UniProt Q9JLV5 1-768), the binding was “binds”.
